# Measurements reported in PubChem BioAssay AID1487 (National Center for Advancing Translational Sciences (NCATS), 2009).
# Where “and” joins values, the source holds several entries; their conditions need not be identical. Equal entries are not always repeated. The list shows a part of the results. Shown are side measurements of this screen, not its main read-out; they come without a call. Compounds called inactive in the main read-out are mostly missing here. Words in brackets tell the shape of the fitted curve; partial curves, single points and poor fits give uncertain potencies.
# Assay: qHTS Assay for Modulators of Lamin A Splicing
# Details: HeLa LMNA splicing GFP/RFP minigene ratio, 48 h
# Summary of the method: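 S3 HeLa stable clones carrying a lamin A-EGFP splicing minigene plus DsRed2 were seeded at 600 cells/well in Opti-MEM with 2% FBS, pin-dosed and incubated 48 h at 37°C. Acumen cytometry (488 nm) gave the GFP/RFP total-intensity ratio.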
# [1] = measured here: GFP splicing reporter channel
# [2] = measured here: RFP viability control channel
SMILES,AC50 [1],AC50 [2]
CCOC(=O)C(=Cc1ccc(-c2ccsc2C(=O)OC)o1)C(=O)OCC,"20 µM [falling, partial curve, poor fit]","31.6 µM [falling, partial curve, poor fit]"
CC(=O)c1cccc(NC(=O)CSc2nc3ccccc3nc2Cc2ccc(F)cc2)c1,"0.126 µM [rising, full curve]",
Cc1nc2ccc(NS(=O)(=O)c3ccc(C)c(C)c3)cc2s1,"2.51 µM [rising, full curve]","2.82 µM [rising, full curve]"
CCS(=O)(=O)N1CCC(C(=O)N2CCN(Cc3ccccc3)CC2)CC1,"0.0126 µM [falling, full curve]",
CC1=C(c2ccc(C(C)C)cc2)S(=O)(=O)N=C1N1CCC(C(=O)NCCc2ccco2)CC1,"0.00891 µM [falling, full curve, poor fit]","0.0112 µM [falling, full curve, poor fit]"
CC(=O)O[C@](C)(CCC=C(C)C)C1CC=C(C)CC1 (stereo partly specified),,"20 µM [falling, single point]"
CCOc1cc(/C=C\[N+](=O)[O-])ccc1OCC(=O)Nc1ccccc1C,"3.55 µM [falling, full curve]","3.55 µM [falling, full curve]"
S=C(Nc1ccccc1Cl)N1CCN(Cc2ccccc2)CC1,"35.5 µM [rising, single point]","31.6 µM [rising, single point]"
Cc1ccc(C(=O)Nc2c(C)nc3ccccn3c2=O)cc1C,,"0.316 µM [rising, full curve, poor fit]"
O=C(O)CCCN1C(=O)C2C3CCC(O3)C2C1=O (stereo unspecified),"5.62 µM [falling, single point]","0.0355 µM [rising, full curve, poor fit]"
CCN(c1cccc(C)c1)S(=O)(=O)c1cccc(C(=O)O)c1,"0.794 µM [rising, full curve, poor fit]",
CO/N=C(/CS(=O)Cc1ccccc1Cl)c1ccc(Cl)cc1Cl (stereo unspecified),"2.51 µM [rising, single point]","17.8 µM [rising, single point]"
CCn1c2ccccc2c2nnc(SCCCn3c(=O)[nH]c4ccccc43)nc21,,"11.2 µM [rising, partial curve]"
O=C(NC(=S)N1CCN(c2ccc(C(F)(F)F)cc2[N+](=O)[O-])CC1)c1cccs1,,"22.4 µM [rising, single point]"
CC(C)(C)c1ccc(C(=O)NCC(c2ccc(Cl)cc2)N2CCOCC2)cc1 (stereo unspecified),"12.6 µM [falling, partial curve, poor fit]",
C[C@@H](C(=O)Nc1ccc2ccccc2c1)[C@@H]1C[C@@]1(C)[C@@H](NC(=O)c1cnccn1)c1ccccc1,,"4.47 µM [rising, full curve]"
C[C@]1(C(=O)NCCCNc2ncc(C(F)(F)F)cc2Cl)C=C[C@@H](Cc2ccccc2)N1C(=O)c1ccccc1,,"15.8 µM [rising, single point]"
Cc1ccc2c(CC(=O)NNC(=O)c3ccccc3)coc2c1,"0.126 µM [rising, full curve, poor fit]",
C=CCN(c1ccccc1C(=O)NCC(=O)O)S(=O)(=O)c1ccc(C)cc1,,"0.398 µM [falling, full curve, poor fit]"
O=S(=O)(c1ccc2ccccc2c1)N1CCN(C(=S)Nc2ccc(F)cc2)CC1,"12.6 µM [rising, single point]","17.8 µM [rising, partial curve]"
COCCN(Cc1cc2cc(C)ccc2n2nnnc12)C(=S)Nc1cccc(C)c1,,"0.00891 µM [falling, full curve, poor fit]"
CCCCN1C(=O)c2ccc(C(=O)Nc3ccc(S(=O)(=O)N(C)C)cc3)cc2C1=O,,"22.4 µM [rising, single point]"
CC(C)NC[C@H](O)c1ccc(O)c(O)c1,"0.02 µM [falling, full curve, poor fit]","8.91 µM [rising, partial curve, poor fit] and 3.16 µM [falling, single point] and 2.24 nM [falling, full curve, poor fit]"
Cc1ccccc1OCC(=O)NCC(c1ccc(Cl)cc1)N1CCCCC1 (stereo unspecified),"35.5 µM [falling, single point]","5.62 µM [rising, partial curve, poor fit]"
C(#CCN1CCC(Cc2ccccc2)CC1)COCCOCc1ccccc1,,"22.4 µM [rising, partial curve, poor fit]"
CC(=O)OCC(=O)[C@@]12OC(C)(C)O[C@@H]1C[C@H]1[C@H]3C[C@H](F)C4=CC(=O)C=C[C@@]4(C)[C@]3(F)[C@H](O)C[C@@]12C,,"0.00224 µM [rising, full curve, poor fit]"
COc1ccc(C)cc1NC(=O)Nc1cccc(OCc2cc(=O)n3ccc(C)cc3n2)c1,"3.98 µM [falling, partial curve, poor fit]",

# Another view of part of the listing above.
SMILES | AC50 [1] | AC50 [2]
C[C@]1(C(=O)NCCCNc2ncc(C(F)(F)F)cc2Cl)C=C[C@@H](Cc2ccccc2)N1C(=O)c1ccccc1 |  | 15.8 µM [rising, single point]
Cc1ccc2c(CC(=O)NNC(=O)c3ccccc3)coc2c1 | 0.126 µM [rising, full curve, poor fit] | 
C=CCN(c1ccccc1C(=O)NCC(=O)O)S(=O)(=O)c1ccc(C)cc1 |  | 0.398 µM [falling, full curve, poor fit]

# Entries of single compounds from above.
# CC(=O)OCC(=O)[C@@]12OC(C)(C)O[C@@H]1C[C@H]1[C@H]3C[C@H](F)C4=CC(=O)C=C[C@@]4(C)[C@]3(F)[C@H](O)C[C@@]12C reads AC50 [2]: 0.00224 µM [rising, full curve, poor fit]
# S=C(Nc1ccccc1Cl)N1CCN(Cc2ccccc2)CC1 reads AC50 [1]: 35.5 µM [rising, single point]; AC50 [2]: 31.6 µM [rising, single point]

# More structures.

SMILES,AC50 [1],AC50 [2]
COc1ccc(NC(=O)c2cccs2)cc1NC(=O)c1ccco1,,"31.6 µM [rising, single point]"
Cc1ccc(CN2CCc3c(OCc4ccc(F)cc4)cccc3C2=O)cc1,,"2.82 µM [rising, full curve]"
CC(C)Cc1cc(CN2CCCC(CO)(Cc3cccc(Cl)c3)C2)[nH]n1 (stereo unspecified),"28.2 µM [falling, single point]",
COc1ccc(N2CCN(S(=O)(=O)c3ccc(-c4ccno4)cc3OC)CC2)cc1,"0.316 µM [falling, full curve, poor fit]",
CC(=O)Nc1sc2c(c1CN1CCN(c3ccc(F)cc3)CC1)CCCC2,,"17.8 µM [rising, single point]"
COc1ccc(CNc2cc(-c3ccccc3Cl)ncn2)c(OC)c1,"12.6 µM [falling, partial curve]",
CC(NC(=O)/C=C/c1ccccc1)c1ccccc1 (stereo unspecified),"0.0708 µM [rising, partial curve, poor fit]",
CC12CCC(C(=O)Nc3nc4ccccc4s3)(OC1=O)C2(C)C (stereo unspecified),,"14.1 µM [falling, partial curve, poor fit]"
Cc1ccc2nc(-c3ccncc3)cc(-c3ccccc3)c2c1,"17.8 µM [falling, single point]","17.8 µM [falling, partial curve]"
CC(C)(C)NC(=O)c1cnn2c1NC(c1ccc(F)cc1)CC2C(F)(F)F (stereo unspecified),,"0.0398 µM [falling, full curve, poor fit]"
CC(O)CNc1nc2c(c(=O)n(C)c(=O)n2C)n1Cc1cccc(C(F)(F)F)c1 (stereo unspecified),,"12.6 µM [rising, partial curve]"
COc1ccc(-n2c(-c3ccccc3)nnc2-c2ccc(Cl)cc2)cc1,"0.158 µM [rising, full curve, poor fit]",
COc1ccc(NS(=O)(=O)c2ccc(NC(=S)NC(=O)c3ccc(Br)cc3)cc2)nn1,,"31.6 µM [rising, single point]"
Cc1cc(Br)ccc1NC(=O)C(C)c1ccc([N+](=O)[O-])cc1 (stereo unspecified),,"11.2 µM [rising, partial curve, poor fit]"
Cc1coc2c1c(C)cc1oc(=O)c(Cc3ccccc3)c(C)c12,,"2.82 µM [falling, partial curve, poor fit]"
Cc1ccc2nc(SCC(=O)Nc3ccc4sc(C)nc4c3)c(C#N)cc2c1,,"2.24 µM [rising, full curve, poor fit]"
C=CCN(CC=C)c1ccc(N2C(=O)C3CCCCC3C2=O)cc1[N+](=O)[O-] (stereo unspecified),,"35.5 µM [falling, single point]"
Cc1cc(Cl)c(S(=O)(=O)NC2CCCC2)cc1OCC(=O)NC1CCCCC1,"3.98 µM [rising, full curve]","4.47 µM [rising, full curve]"
O=C(COC(=O)CNC(=O)c1ccc2c(c1)OCO2)Nc1ncc(Cl)cc1Cl,,"20 µM [rising, single point]"
O=C(Nc1ccc(-c2nc3ccccc3o2)cc1)c1ccc(N2C(=O)C3C4C=CC(C4)C3C2=O)cc1 (stereo unspecified),"22.4 µM [rising, partial curve]","10 µM [rising, partial curve]"
COc1ccc([N+](=O)[O-])cc1NC(=O)CSc1ccc2ccccc2c1,"12.6 µM [rising, single point]","15.8 µM [rising, partial curve]"
CCNc1nc(OC)nc(N2CCC(Cc3ccccc3)CC2)n1,"35.5 µM [rising, single point]","35.5 µM [rising, single point]"
Cc1c(CCOC(=O)c2ccccc2)sc[n+]1Cc1ccccc1,"12.6 µM [rising, single point]","20 µM [rising, single point]"
COc1ccc(N(CC(=O)NCCC2=CCCCC2)S(=O)(=O)c2ccccc2)cc1OC,"8.91 µM [falling, partial curve, poor fit]","0.00501 µM [falling, full curve, poor fit]"
CCC(=O)c1ccc(OCC(O)CN2CCN(c3cccc(C(F)(F)F)c3)CC2)cc1 (stereo unspecified),,"11.2 µM [rising, partial curve, poor fit]"
CC1=C(C(=O)OCc2ccc3c(c2)OCO3)C(c2ccc(F)cc2)NC(=O)N1 (stereo unspecified),"20 µM [rising, partial curve, poor fit]","11.2 µM [rising, partial curve]"
